Measured values as given in US9750252B2, “Arylalkyloxy pyrimidine derivative, pesticide for agricultural and horticultural use containing arylalkyloxy pyrimidine derivative as active ingredient, and use of same” (NIHON NOHYAKU CO., LTD., priority 2012, dated 2017).
Some entries share one result that the patent states for a list of compounds. Some ranges recur; such a range may be that of the whole group of compounds.

Tested on: Green Peach Aphid (Myzus persicae)
Assay: Control efficacy against green peach aphid, spray on potted Chinese cabbage
Format: in vivo
Details: 500 ppm liquid chemical sprayed on stalks and leaves of Chinese cabbage; counted six days after the spraying

| SMILES | insecticidal effect (control efficacy) against green peach aphid |
| --- | --- |
| FC(F)(F)c1ccccc1COc1ncncc1C1OCCCO1 [15-43] | D (control efficacy 79%-50%) |
| FC(F)(F)Oc1ccc(COc2ncnc(Cl)c2C2OCCCS2)cc1 (stereo not drawn) [12-20] | D (control efficacy 79%-50%) |
| FC(F)(F)Oc1ccc(COc2ncncc2C2=NCCN2)cc1 [9-7] | D (control efficacy 79%-50%) |
| FC(F)(F)Oc1ccc(COc2ncnc(Cl)c2C2SCCCS2)cc1 [12-13] | D (control efficacy 79%-50%) |
| N#Cc1cncnc1OCc1ccc(C(F)(F)F)cc1 [2-51] | D (control efficacy 79%-50%) |
| CCCC1COC(c2cncnc2OCc2ccc(C(F)(F)F)cc2)O1 (stereo not drawn) [9-44] | D (control efficacy 79%-50%) |
| O=C(Nc1cc(Cl)cc(Cl)c1)c1cncnc1OCc1ccc(C(F)(F)F)cc1 [14-90] | D (control efficacy 79%-50%) |
| O=S1(=O)CCCS(=O)(=O)C1c1cncnc1OCc1ccc(OC(F)(F)F)cc1 [9-14] | D (control efficacy 79%-50%) |
| FC(F)(F)c1ccc(COc2ncncc2C2OCC3(COCOC3)CO2)cc1 [15-96] | D (control efficacy 79%-50%) |
| COCC(OC)c1cncnc1OCc1ccc(C(F)(F)F)cc1 (stereo not drawn) [8-42] | D (control efficacy 79%-50%) |
| CSCCCc1cncnc1OCc1ccc(OC(F)(F)F)cc1 [14-3] | D (control efficacy 79%-50%) |
| FC(F)(F)c1ccc(COc2ncnc(Cl)c2C2OCCCS2)cc1 (stereo not drawn) [12-19] | D (control efficacy 79%-50%) |
| COCOCC(OCOC)c1cncnc1OCc1ccc(C(F)(F)F)cc1 (stereo not drawn) [8-62] | D (control efficacy 79%-50%) |
| FC(F)(F)Oc1ccc(COc2ncnc(Cl)c2C2SCCS2)cc1 [12-5] | D (control efficacy 79%-50%) |
| FC(F)(F)c1ccc(COc2ncncc2C2CO2)cc1 (stereo not drawn) [8-61] | D (control efficacy 79%-50%) |
| CC(O)c1cncnc1OCc1ccc(C(F)(F)F)cc1 (stereo not drawn) [2-77] | D (control efficacy 79%-50%) |
| FC(F)(F)c1ccc(COc2ncnc(Cl)c2C2SCCS2)cc1 [12-4] | D (control efficacy 79%-50%) |
| O=S1(=O)CCCS(=O)(=O)C1c1cncnc1OCc1ccc(C(F)(F)F)cc1 [9-13] | D (control efficacy 79%-50%) |
| FC(F)(F)c1ccc(COc2ncncc2C2OCC3(CC3)CO2)cc1 [9-46] | D (control efficacy 79%-50%) |

| SMILES | insecticidal effect (control efficacy) against green peach aphid |
| --- | --- |
| O=S1(=O)CCCOC1c1cncnc1OCc1ccc(OC(F)(F)F)cc1 (stereo not drawn) [9-28] | D (control efficacy 79%-50%) |
| CC1(CO)COC(c2cncnc2OCc2ccc(C(F)(F)F)cc2)OC1 (stereo not drawn) [15-101] | D (control efficacy 79%-50%) |
| Clc1cccc(Cl)c1COc1ncncc1C1OCCCO1 [15-45] | D (control efficacy 79%-50%) |
| O=C1CN(CC(F)(F)F)C(c2cncnc2OCc2ccc(OC(F)(F)F)cc2)S1 (stereo not drawn) [9-29] | D (control efficacy 79%-50%) |
| CC(C)(C)c1ccc(COc2ncncc2C2CCCO2)cc1 (stereo not drawn) [1-95] | D (control efficacy 79%-50%) |
| CCOC(=O)c1cncnc1OCc1ccc(C(F)(F)F)cc1 [2-88] | D (control efficacy 79%-50%) |
| CC(C)C(=O)N(C)Cc1cncnc1OCc1ccc(C(F)(F)F)cc1 [14-112] | D (control efficacy 79%-50%) |
| FC(F)(F)c1ccc(COc2ncncc2C2COC(c3ccccc3)O2)cc1 (single isomer, unassigned) [15-94] | D (control efficacy 79%-50%) |
| CCSCCc1cncnc1OCc1ccc(C(F)(F)F)cc1 [14-2] | D (control efficacy 79%-50%) |
| CC(C)(C)c1ccc(COc2ncncc2CO[Si](C)(C)C(C)(C)C)cc1 [1-110] | D (control efficacy 79%-50%) |
| Ic1ccc(COc2ncncc2C2OCCCCO2)cc1 [15-65] | D (control efficacy 79%-50%) |
| Cc1ccc(NC(=O)c2cncnc2OCc2ccc(C(F)(F)F)cc2)cc1 [14-98] | D (control efficacy 79%-50%) |
| CSC1=NOC(c2cncnc2OCc2ccc(C(F)(F)F)cc2)C1 (stereo not drawn) [8-57] | D (control efficacy 79%-50%) |
| CCSC(SCC)c1c(Cl)ncnc1OCc1ccc(OC(F)(F)F)cc1 [12-23] | D (control efficacy 79%-50%) |
| C=Cc1cncnc1OCc1ccc(Cl)cc1 [8-12] | D (control efficacy 79%-50%) |
| C=C(C#C[Si](C)(C)C)c1cncnc1OCc1ccc(C(F)(F)F)cc1 [14-66] | D (control efficacy 79%-50%) |
| Fc1cc(C(F)(F)F)ccc1COc1ncnc(Cl)c1C1OCCCO1 [12-10] | D (control efficacy 79%-50%) |
| FC(F)(F)Oc1ccc(COc2ncnc(Cl)c2C2OCCCO2)cc1 [12-12] | D (control efficacy 79%-50%) |
| FC(F)(F)c1ccc(COc2ncncc2C2O[C@H]3CCCC[C@H]3O2)cc1 (stereo partly drawn) [4-90] | D (control efficacy 79%-50%) |

| SMILES | insecticidal effect (control efficacy) against green peach aphid |
| --- | --- |
| FC(F)(F)c1ccc(COc2ncncc2Cc2ccccc2)cc1 [8-1] | D (control efficacy 79%-50%) |
| Clc1ccc(Cl)c(COc2ncncc2C2OCCCO2)c1 [15-44] | D (control efficacy 79%-50%) |
| CS(=O)(=O)OCC(OS(C)(=O)=O)c1cncnc1OCc1ccc(C(F)(F)F)cc1 (stereo not drawn) [8-51] | D (control efficacy 79%-50%) |
| CC1(C)COC(c2cncnc2OCc2ccc(C(F)(F)F)cc2)OC1 [4-26] | D (control efficacy 79%-50%) |
| CC(C)(C)c1ccc(COc2ncnc(Cl)c2C2SCCS2)cc1 [12-3] | D (control efficacy 79%-50%) |
| O=S1(=O)CCCOC1c1cncnc1OCc1ccc(C(F)(F)F)cc1 (stereo not drawn) [9-27] | D (control efficacy 79%-50%) |
| FC(F)(F)c1ccc(COc2ncncc2C2CC(Cl)=NO2)cc1 (stereo not drawn) [8-50] | D (control efficacy 79%-50%) |
| FC(F)(F)c1ccc(COc2ncncc2C2OCC(c3ccccc3)O2)cc1 (stereo not drawn) [15-74] | D (control efficacy 79%-50%) |
| FC(F)(F)c1ccc(COc2ncncc2C2OCC3(CO2)SCCS3)cc1 [15-108] | D (control efficacy 79%-50%) |
| O=C(Nc1ccccc1)c1cncnc1OCc1ccc(C(F)(F)F)cc1 [8-21] | D (control efficacy 79%-50%) |
| O=C(NCC(F)(F)F)c1cncnc1OCc1ccc(C(F)(F)F)cc1 [8-13] | D (control efficacy 79%-50%) |
| FC(F)(F)c1ccc(COc2ncncc2C2COC3(CCCCC3)O2)cc1 (stereo not drawn) [9-41] | D (control efficacy 79%-50%) |
| N#Cc1cncnc1OCc1ccc(OC(F)(F)F)cc1 [3-51] | D (control efficacy 79%-50%) |
| CCCCCCCc1cncnc1OCc1ccc(OC(F)(F)F)cc1 [3-31] | D (control efficacy 79%-50%) |
| N#CC=Cc1cncnc1OCc1ccc(C(F)(F)F)cc1 (single isomer, unassigned) [14-64] | D (control efficacy 79%-50%) |
| FC(F)(F)c1ccc(COc2ncncc2-c2cccnc2)cc1 [2-102] | D (control efficacy 79%-50%) |
| CCC(OC)OCC(O)c1cncnc1OCc1ccc(C(F)(F)F)cc1 (stereo not drawn) [14-8] | D (control efficacy 79%-50%) |
| FC(F)(F)c1ccc(COc2ncncc2-c2ccncc2)cc1 [2-103] | D (control efficacy 79%-50%) |
| CC(C)(C)c1ccc(COc2ncncc2COc2ccccc2)cc1 [1-70] | D (control efficacy 79%-50%) |
